Small-molecule microarray binding calls

Targets (5′ to 3′):
PreQ1: PreQ1 riboswitch RNA pseudoknot, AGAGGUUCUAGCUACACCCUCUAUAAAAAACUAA. From B. subtilis. About 24,000 compounds screened, about 170 hits.
TPP: TPP riboswitch RNA three-way junction, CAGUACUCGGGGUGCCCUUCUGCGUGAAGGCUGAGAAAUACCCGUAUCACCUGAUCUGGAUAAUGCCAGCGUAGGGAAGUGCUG. About 24,000 compounds screened, about 160 hits.
SAM-II: SAM-II riboswitch RNA pseudoknot, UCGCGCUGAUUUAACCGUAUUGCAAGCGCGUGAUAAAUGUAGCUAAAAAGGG. About 21,000 compounds screened, about 200 hits.

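The test is a small-molecule microarray: each compound is printed twice on a reactive slide, and binding shows as fluorescence of the labelled oligonucleotide after washing. For the PreQ1, TPP and SAM-II riboswitches the laboratory earlier reported (doi:10.1038/s41467-019-09493-3) 1 µM RNA, 2 h, and a rule that included a mean Z-score above 3 (spot signal-to-noise against the whole library), a score well above that on a control array, and duplicate spots agreeing (coefficient of variation under 100). The data file gives only the calls; its cut-offs may differ, and compounds hitting several targets are kept. A missing hit is not proof of no binding, and a hit is not a measured affinity.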 “Y” means called a hit, “N” means screened and not called a hit. This is an unselected part of the compounds tested. A dash means that no call is listed here.

Compound,PreQ1,TPP,SAM-II
Cc1ccc(NCC(=O)n2c3ccccc3c3ccccc32)cc1C,N,N,N
COC1=C2C[C@@H](C)C[C@H](OC)[C@@H](O)[C@@H](C)/C=C(/C)[C@H](OC(N)=O)[C@@H](OC)/C=C\C=C(\C)C(=O)NC(=CC1=O)C2=O,N,N,N
CCCCn1nc(-c2csc(C)n2)nc1[C@H]1[C@@H]2CNC[C@@H]21,N,N,N
Cc1sc2nc(CCN)nc(NCC3OCCc4ccccc43)c2c1C (configuration not stated),N,N,N
O=C(C1CCC1)N1CCC(C(=O)N(CCCO)Cc2ccncc2)CC1,N,N,N
CC(C)NC(=O)[C@@H]1C[C@@H](N)CN1C(=O)CCSCc1ccc(F)cc1,N,N,N
CCOC(=O)CSc1nc(=O)cc(N)n1-c1ccc(Cl)cc1,N,N,N
CCSCC(C)NC1(CN2CCOCC2)CCCC1 (configuration not stated),N,N,N
Cc1nccn1-c1ccccc1CNC(=O)[C@@H](O)c1ccccc1,N,N,N
CSCCc1nc(CC[C@H](N)C(=O)O)n(-c2ccccc2Cl)n1,N,N,N
CCCCCCC(C)OC(=O)c1ccccc1C(=O)O (configuration not stated),N,N,N
CNc1nc(Oc2ccc(=O)n(C)n2)nc(N2CCOCC2)n1,N,N,N
Cc1ccnc(N2C(=O)c3ccccc3C2Nc2ccc(C)cc2Cl)c1 (configuration not stated),N,N,N
COc1ccc(C(=O)NC[C@@H]2C[C@H](F)CN2)c(OC)n1,N,N,N
Br.Cn1c(=N)n(CC(O)C23CC4CC(CC(C4)C2)C3)c2ccccc21 (configuration not stated),N,N,N
COC12C(COC(N)=O)C3=C(C(=O)C(C)=C(N)C3=O)N1CC1C2N1C (configuration not stated),N,N,N
COc1ccc(S(=O)(=O)[C@H]2CS(=O)(=O)C[C@@H]2NC2CCCC2)cc1,N,N,-
N[C@@H](Cc1c[nH]cn1)C(=O)N1CCC(c2cc(-c3ccccc3Cl)n[nH]2)CC1,N,N,N
CCCCNc1ncccc1-c1nc(-c2ccccc2C)no1,N,N,-
Cc1cc(Nc2cccc(Cl)c2)n2nc(Cc3ccccc3)nc2n1,N,N,-
Cc1nc(NCc2ccccc2)cc(-c2ccccc2)n1,N,N,-
O=C(c1ccc(CN2CCCCC2)cc1)N1CCNC(c2ccccc2)C1 (configuration not stated),N,N,N
CCCNc1c(-c2cc(C)c(C)cc2C)c(=O)c1=O,N,Y,-
CCN(CC)S(=O)(=O)c1ccc(-c2csc(Nc3cccc(OC)c3)n2)cc1,N,N,N
Cc1ccc(Nc2nc(C)cc(N3CCN(S(C)(=O)=O)CC3)n2)cc1,N,N,-
Cc1ccc(S(=O)(=O)Oc2cc(N)c3c(n2)CCC3)cc1,N,N,N
O=[N+]([O-])c1oc2ccc3ccccc3c2c1CCO,N,N,N
Cc1ccc(CNc2cccc(C(=O)N(C)CCn3ccnc3C)c2)s1,N,N,N
O[C@@H]1CN(c2noc(C3CC3)n2)CC[C@H]1N1CCN(c2ccccc2F)CC1,N,N,N
COc1cc(N2CCC(N)CC2)ccc1Nc1ncc(Cl)c(-c2c[nH]c3ccccc23)n1,N,N,N
Cc1cnc(-c2cc(N3CCN(C(=O)CCS(C)(=O)=O)CC3)ncc2Cl)c(C)c1,N,N,N
Cc1ccc(Nc2nc(C)cc(N3CCN(S(=O)(=O)c4ccccc4)CC3)n2)cc1,N,N,-
OCCNc1nc(NC2CCCC2)c2ccccc2n1,N,N,N
CCC(CO)N(Cc1ccsc1)C(=O)c1cccc(C)c1Cl (configuration not stated),N,N,N
Nc1nonc1-c1nc2ccccc2n1Cc1ccccc1Br,N,N,N
Cc1cc(C)c2c(N)c(-c3cc(-c4ccc5c(c4)OCO5)no3)sc2n1,N,N,N
Cc1nn(-c2ccc(F)cc2)c(C)c1CNC(C)Cn1ccnc1 (configuration not stated),N,N,N
O=C(Cc1cccc(F)c1F)N1CCOCC(CO)C1 (configuration not stated),N,N,N
Cc1ccc(S(=O)(=O)NCC(Nc2cccc(Cl)c2)c2ccccc2)cc1 (configuration not stated),N,N,N
Nc1c(C(=O)Nc2ccc3c(c2)OCO3)sc2ncccc12,N,N,N
Nc1nc2n(n1)[C@@H](c1ccc(Cl)cc1)C[C@@H](c1ccccc1)N2,N,N,N
CCC#CCn1nc(C2CCNCC2)n(Cc2ccccc2)c1=O,N,N,N
O=C(CCCOCc1ccccc1)N1CCC2(CC1)OCCCC2O (configuration not stated),N,N,N
COc1ccccc1NC1c2ccccc2C(=O)N1Cc1ccc2c(c1)OCO2 (configuration not stated),N,N,N

The last 5 entries again:

| Compound | PreQ1 | TPP | SAM-II |
|---|---|---|---|
| `Nc1c(C(=O)Nc2ccc3c(c2)OCO3)sc2ncccc12` | N | N | N |
| `Nc1nc2n(n1)[C@@H](c1ccc(Cl)cc1)C[C@@H](c1ccccc1)N2` | N | N | N |
| `CCC#CCn1nc(C2CCNCC2)n(Cc2ccccc2)c1=O` | N | N | N |
| `O=C(CCCOCc1ccccc1)N1CCC2(CC1)OCCCC2O` (configuration not stated) | N | N | N |
| `COc1ccccc1NC1c2ccccc2C(=O)N1Cc1ccc2c(c1)OCO2` (configuration not stated) | N | N | N |

Source: the ROBIN nucleic acid binder screens (doi:10.1002/anie.202211358).